PubChem BioAssay AID720505 | Drosophila RNAi Screening Center – 2013
The screen tested about 20,000 reagents; below is a random part of those that have a named target and a result. In the full data, about 2,100 (10%) were called active. 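Raw plate signals without normalisation; calls rest on control-based scores that were not deposited; replicate 2 separates called from uncalled poorly.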 Unmarked entries are inactive. The record does not give: the amount of reagent, the time to read-out.

- Purpose: 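Genes needed for store-operated calcium entry in fly cells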 (primary screen)
- System: Drosophila S2R+ cells
- Knock-down reagent: long dsRNA against Drosophila genes
- Challenge: thapsigargin (2 µM) in calcium-free buffer to empty internal stores, then 2 mM calcium added back
- Read-out: 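Stores emptied by 2 µM thapsigargin without calcium, then 2 mM calcium re-added; fluo-4 fluorescence followed by FLIPR in 384-well plates, per-well averaged endpoint, raw; two screen passes, some wells retested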
- Scale: calcium signal and retest calcium signal: higher = more calcium entry after store depletion
- Call rule: 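Knock-downs counted as hits when calcium entry dropped relative to STIM1 positive and Rho1 negative controls present on each plate; roughly 1500 genes called, with reductions of differing size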
- Calls: active = called as lowering calcium entry; inactive = not called

predicted target | dsRNA | calcium signal, replicate 1 | calcium signal, replicate 2 | retest calcium signal, replicate 1 | retest calcium signal, replicate 2
SLC22A (SLC22A family member) | DRSC11826 | 90.3 | 227 | – | –
SLC22A (SLC22A family member) | DRSC11827 | 128 | 178 | – | –
CG12071 | DRSC14471 | 143 | 141 | – | –
CG12071 | DRSC22972 | 86.5 | 72.6 | – | –
Rtnl1 (Reticulon-like1) | DRSC00851 | 74.1 | 169 | – | –
Rtnl1 (Reticulon-like1) | DRSC02684 | 106 | 191 | – | –
Rtnl1 (Reticulon-like1) | DRSC03122 | 91.8 | 150 | – | –
Rtnl1 (Reticulon-like1) | DRSC21698 | 65 | 172 | – | –
PQBP1 (Poly-glutamine tract binding protein 1) | DRSC14393 | 224 | 270 | – | –
CG13891 | DRSC08361 | 82.4 | 103 | – | –
CG6739 | DRSC02987 | 71.5 (active) | 155 | – | –
CG4374 | DRSC15570 | 255 | 112 | – | –
CG6044 | DRSC04522 | 71.5 | 133 | – | –
CG7294 | DRSC03041 | 111 | 94.4 | – | –
scu (scully) | DRSC20369 | 108 | 152 | – | –
mRpS30 (mitochondrial ribosomal protein S30) | DRSC20107 | 111 | 107 | – | –
CG6428 | DRSC18402 | 173 | 135 | – | –
FucTA (alpha1,3-fucosyltransferase A) | DRSC10733 | 81.7 | 128 | – | –
Pde8 (Phosphodiesterase 8) | DRSC04503 | 144 | 87 | – | –
CG7402 | DRSC10839 | 83.3 | 179 | – | –
CG31740 | DRSC01619 | 217 | 99.2 | – | –
SMC6 (Structural maintenance of chromosomes 6) | DRSC15829 | 213 | 205 | – | –
CG18641 | DRSC00527 | 216 | 163 | – | –
wtrw (water witch) | DRSC14241 | 72.8 (active) | 92.5 | – | –
wtrw (water witch) | DRSC15278 | 98.5 | 180 | 5602 | 164
snz (snazarus) | DRSC17969 | 130 | 113 | – | –
PLCXD | DRSC02427 | 95 | 88 | 90.4 | 116
Pkc53E (Protein C kinase 53E) | DRSC05636 | 159 | 111 | – | –
Pkc53E (Protein C kinase 53E) | DRSC07510 | 124 | 93 | – | –
mEFTs (mitochondrial translation elongation factor Ts) | DRSC02953 | 84.3 | 112 | – | –
bnk (bottleneck) | DRSC16912 | 174 | 125 | – | –
CG10466 | DRSC02060 | 130 | 110 | – | –
CG10321 | DRSC04061 | 94.5 | 130 | – | –
CG8478 | DRSC16427 | 152 | 88 | – | –
CG11550 | DRSC14326 | 53.9 (active) | 143 | – | –
PIG-U (Phosphatidylinositol glycan anchor biosynthesis class U) | DRSC02193 | 107 | 93.9 | – | –
stan (starry night) | DRSC05234 | 61.8 | 104 | – | –
stan (starry night) | DRSC07697 | 139 | 104 | – | –
Arfrp1 (ADP-ribosylation factor related protein 1) | DRSC18417 | 130 | 124 | – | –
Nmt (N-myristoyl transferase) | DRSC11236 | 92 | 84.4 | – | –
Sec3 (Secretory 3) | DRSC10384 | 101 | 84 | – | –
Npc2f (Niemann-Pick type C-2f) | DRSC15980 | 122 | 190 | – | –
CG33109 | DRSC16533 | 96.5 | 85.1 | – | –
CR14117 (pseudo) | DRSC10121 | 58.4 | 94.9 | – | –
GstE2 (Glutathione S transferase E2) | DRSC06672 | 126 | 91.8 | – | –
cnir (cornichon related) | DRSC00499 | 87.4 | 98.1 | – | –
Roc1a (Regulator of cullins 1a) | DRSC18483 | 98.8 | 113 | – | –
CG31036 | DRSC15055 | 153 | 155 | – | –
CG31036 | DRSC15057 | 165 | 212 | – | –
CG5742 | DRSC06949 | 167 | 131 | – | –
seq (sequoia) | DRSC06863 | 123 | 129 | – | –
ranshi | DRSC16564 | 90.8 | 159 | – | –
CG10366 | DRSC02046 | 92.5 | 104 | – | –
CG42260 | DRSC04172 | 100 | 145 | – | –
CG42260 | DRSC04385 | 123 | 112 | – | –
Vha36-2 (Vacuolar H[+] ATPase 36kD subunit 2) | DRSC06294 | 96 | 130 | – | –

Records above called active:
predicted target | dsRNA | calcium signal, replicate 1 | calcium signal, replicate 2 | retest calcium signal, replicate 1 | retest calcium signal, replicate 2
CG6739 | DRSC02987 | 71.5 (active) | 155 | – | –
wtrw (water witch) | DRSC14241 | 72.8 (active) | 92.5 | – | –
CG11550 | DRSC14326 | 53.9 (active) | 143 | – | –
